Screen size: about 390,000 compounds; about 610 (0.16%) were called active. Inconclusive results, whose numbers are uncertain, are shown with a selection of clear calls. The call rests on the fitted dose curve; in most records, active means well fitted inhibition curve with a large enough effect; inconclusive means small, poorly fitted or top-dose-only effect, or effect the other way, or another doubt; inactive means no such curve, though single readings can be large or run the other way. Potencies beside an inconclusive call are fits to weak or partial responses and may not hold up.
Experiment: Nrf2 qHTS screen for inhibitors: counterscreen for cytotoxicity
Details: A549 ARE-Fluc cells, CellTiter-Fluor viability, 18-24 h; series mostly up to 46 µM
Procedure, shortened: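 A549 ARE_Fluc cells in 5% FBS OPTI-MEM were exposed to compounds in concentration-response for 18-24 h at 37 deg C. Viability was read by CellTiter-Fluor fluorescence (Ex 405/Em 525) after 30 min, before the luciferase read.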
Potency means the concentration at half of the fitted maximal effect.

Row | SMILES | Potency
1 | O=C(c1ccc2c(=O)n(-c3ccccc3)c(=S)[nH]c2c1)N1CCCCC1 | inactive
2 | O=C(Nc1ccc(F)cc1)c1nn(-c2ccccc2)c(=O)cc1Cl | inconclusive: 29.1 µM [falling, single point]
3 | N=c1c2c(ncn1-c1ccccc1)Oc1ccc3ccccc3c1C2c1ccc2c(c1)CCO2 (centres undefined) | active: 16.4 µM
4 | Nc1ncccc1OCc1cccc(C(F)(F)F)c1 | inconclusive: 23.1 µM [falling, partial curve, poor fit]
5 | N#C/C(=C(/O)c1ccc([N+](=O)[O-])o1)c1nc2ccccc2[nH]1 | inconclusive: 25.9 µM [falling, single point]
6 | Cc1ccc(C(=O)c2cc([N+](=O)[O-])ccc2N2CCCCC2)c(C)c1 | inconclusive: 20.6 µM [falling, partial curve, poor fit]
7 | Cc1ccnc(N2C(=O)c3cccc4c([N+](=O)[O-])ccc(c34)C2=O)c1 | inconclusive: 3.26 µM [activator, partial curve]
8 | CCOC(=O)N1CCN(C(=O)COc2ccc(Cl)cc2)CC1 | inconclusive: 32.6 µM [activator, partial curve, poor fit]
9 | Cn1cccc1/C=C1\SC(=Nc2ccccc2)NC1=O | inconclusive: 20.6 µM [falling, single point]
10 | COc1cc2c(cc1OC)CN(C(=O)CCC(=O)c1ccc(F)cc1)CC2 | inactive
11 | Cc1ccc(OCC(=O)Nc2ccc(Cl)c(-c3nc4ccccc4[nH]3)c2)cc1C | inconclusive: 29.1 µM [falling, partial curve, poor fit]
12 | O=C1C=C(Nc2cccnc2)c2ccccc2C1=O | inconclusive: 29.1 µM [falling, single point]
13 | CCn1cc2nc(SCc3ccc(C)cc3)n(CCc3ccccc3)c(=O)c2n1 | inconclusive: 32.6 µM [falling, partial curve, poor fit]
14 | CCOC(=O)c1cnc2c(cnn2C)c1NCCCN(C)C | inconclusive: 1.03 µM [activator, full curve, poor fit]
15 | c1ccc2c(c1)OCc1cn[nH]c1-2 | inconclusive: 29.1 µM [activator, partial curve, poor fit]
16 | Cc1ccc(/C=C/C(=O)OC(C)C(=O)Nc2ccc(Cl)cn2)o1 (centres undefined) | inactive
17 | O=S(=O)(c1ccc(Cl)cc1)N1CCCc2ccccc21 | inconclusive: 23.1 µM [activator, single point]
18 | Cc1ccc(NS(=O)(=O)c2cc([N+](=O)[O-])ccc2NNC(=S)Nc2cccc(Cl)c2)c(C)c1 | inconclusive: 29.1 µM [falling, single point]
19 | Cc1cc(C)cc(NC(=O)N2CCN3CCCCC3C2)c1 (centres undefined) | inactive
20 | CCCCC(=NCCc1c(C)[nH]c2ccc(OC)cc12)C1=C(O)CC(c2ccccc2)CC1=O (centres undefined) | inconclusive: 4.61 µM [falling, partial curve, poor fit]
21 | COc1ccc(CCNc2c(C)c(C)nc3ncnn23)cc1 | inconclusive: 2.06 µM [falling, partial curve, poor fit]
22 | CCOc1cccc2sc(=NC(=O)c3ccco3)n(CC(=O)OC)c12 | inactive

Row | SMILES | Potency
23 | CCN1CCN(c2ccc(NC(=O)c3ccc4c(c3)[nH]c(=O)n4Cc3ccc(OC)cc3)cc2)CC1 | inconclusive: 32.6 µM [falling, partial curve, poor fit]
24 | COc1ccc(S(=O)(=O)N(C)CC(=O)NCc2cccnc2)cc1Cl | inconclusive: 29.1 µM [activator, single point]
25 | NC(=O)CC(NC(=O)c1ccc(Br)cc1)c1ccc(N2CCCCCC2)c([N+](=O)[O-])c1 (centres undefined) | inconclusive: 25.9 µM [falling, partial curve, poor fit]
26 | COc1ccccc1NC(=O)Cn1c(=O)n(CCC(=O)NCC2CCCO2)c(=O)c2cc(OC)c(OC)cc21 (centres undefined) | inactive
27 | S=C(Nc1ccc(Cl)c(Cl)c1)NC1CCN(Cc2ccccc2)CC1 | inconclusive: 29.1 µM [falling, single point]
28 | O=C1CCCN1c1ccc(S(=O)(=O)Oc2ccc(Cl)cc2)cc1[N+](=O)[O-] | inconclusive: 8.2 µM [falling, partial curve]
29 | CC(Sc1cccc(C(F)(F)F)c1)C(=O)NC(N)=O (centres undefined) | inconclusive: 29.1 µM [activator, single point]
30 | CCOC(=O)CNS(=O)(=O)c1ccc(F)cc1Br | inconclusive: 3.66 µM [activator, full curve, poor fit]
31 | Cc1cc(NCCOCCO)n2ncc(-c3ccc(Cl)cc3)c2n1 | inactive
32 | COc1cccc(C(=O)NCC(c2ccc(N(C)C)cc2)N2CCc3ccccc32)c1 (centres undefined) | inconclusive: 29.1 µM [falling, partial curve, poor fit]
33 | CC(C)=CCC/C(C)=C/COc1c2ccoc2cc2oc(=O)ccc12 | inactive
34 | Clc1ccccc1N/N=C/c1ccc2c(c1)OCO2 | inactive
35 | Cc1ccc2c(C)nc(Nc3nc(CSc4nc5ccccc5[nH]4)cc(=O)[nH]3)nc2c1 | inactive
36 | O=C(NCCSCc1ccc(Cl)cc1Cl)c1ccc(CN2CCOCC2)cc1 | inconclusive: 29.1 µM [falling, partial curve, poor fit]
37 | CCOc1ccccc1NC(=O)c1cc(C(=O)c2cc(Br)ccc2O)coc1=N | inconclusive: 20.6 µM [falling, single point]
38 | CCC12CN3CC(CC)(CN(C1)C3c1ccc([N+](=O)[O-])o1)C2=O (centres undefined) | inactive
39 | Cc1cccc(N/N=C/c2ccc(O)c(O)c2O)c1 | inconclusive: 29.1 µM [falling, partial curve, poor fit]
40 | COc1ccc(CCNc2ccc(C(=O)O)cc2[N+](=O)[O-])cc1OC | inactive
41 | CCN(CC)c1ccc(/C=N/NC(=O)c2c[nH]c3ccccc23)cc1 | inconclusive: 23.1 µM [falling, single point]
42 | COc1ccc(-c2nnc3n2N=C(c2ccccc2OC)CS3)c(OC)c1 | inactive
43 | O=C(CN1CCCc2ccccc21)N/N=C/c1ccc(F)cc1F | inactive
44 | Cc1ccccc1C(=O)N1CCC(C(=O)Nc2ccc(C)c(S(=O)(=O)N3CCCCC3)c2)CC1 | inconclusive: 18.4 µM [falling, partial curve, poor fit]

Fetched by structure from above:
Row | SMILES | Potency
27 | S=C(Nc1ccc(Cl)c(Cl)c1)NC1CCN(Cc2ccccc2)CC1 | inconclusive: 29.1 µM [falling, single point]
43 | O=C(CN1CCCc2ccccc21)N/N=C/c1ccc(F)cc1F | inactive

Source: PubChem BioAssay AID504648 (National Center for Advancing Translational Sciences (NCATS), 2011)
